{"source": "paper PMC6801678", "binders": {"B1": {"name": "GFP-tagged lipolysis-stimulated lipoprotein receptor (LSR)/angulin-1 (protein, UniProt Q99KG5 36-594)", "chain": "AIQVTVPDPYHVVILFQPVTLHCTYQMSNTLTAPIVIWKYKSFCRDRVADAFSPASVDNQLNAQLAAGNPGYNPYVECQDSVRTVRVVATKQGNAVTLGDYYQGRRITITGNADLTFEQTAWGDSGVYYCSVVSAQDLDGNNEAYAELIVLGRTSEAPELLPGFRAGPLEDWLFVVVVCLASLLFFLLLGICWCQCCPHTCCCYVRCPCCPDKCCCPEALYAAGKAATSGVPSIYAPSIYTHLSPAKTPPPPPAMIPMRPPYGYPGDFDRTSSVGGHSSQVPLLREVDGSVSSEVRSGYRIQANQQDDSMRVLYYMEKELANFDPSRPGPPNGRVERAMSEVTSLHEDDWRSRPSRAPALTPIRDEEWNRHSPRSPRTWEQEPLQEQPRGGWGSGRPRARSVDALDDINRPGSTESGRSSPPSSGRRGRAYAPPRSRSRDDLYDPDDPRDLPHSRDPHYYDDLRSRDPRADPRSRQRSHDPRDAGFRSRDPQYDGRLLEEALKKKGAGERRRVYREEEEEEEEGHYPPAPPPYSETDSQASRERRMKKNLALSRESLVV"}}, "molecular_target": "FLAG3-Tric∆C, tricellulin lacking the complete cytosolic C-terminus (human)", "test": "co-IP; HEK-293 cells co-transfected with FLAG3-tricellulin constructs and GFP-LSR, lysed 48 h after transfection in modified RIPA buffer; IP with anti-FLAG M2 and Protein A Sepharose at 4 °C; Western blot with anti-LSR and anti-FLAG", "note": "Results are given in words; binding and its absence hold for the method and conditions named. Binding seen in cells or lysates may run through a third protein. Binding can be weak; no strength is given. Tags and fused reporters may be left off the sequences shown.", "data": [{"binder": "B1", "values": [{"measurement": "binding", "value": "binds weakly"}]}]}
